# Experimental data taken from publication PMC7819943, “Rice protein-binding microarrays: a tool to detect cis-acting elements near promoter regions in rice”.
# The chains behind the UniProt entries cited, without tags or fusion partners.
# UniProt Q0JBA9, entry or part of it: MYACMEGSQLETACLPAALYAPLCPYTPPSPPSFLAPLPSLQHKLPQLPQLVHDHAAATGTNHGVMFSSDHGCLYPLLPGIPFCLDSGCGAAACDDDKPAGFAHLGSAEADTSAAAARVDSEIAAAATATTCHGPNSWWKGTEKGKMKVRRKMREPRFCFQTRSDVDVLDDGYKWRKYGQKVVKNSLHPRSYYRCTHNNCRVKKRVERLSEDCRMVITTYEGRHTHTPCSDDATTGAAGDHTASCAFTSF
# The list shows a part of the results.
# Molecular target: OsWRKY34 (Oryza sativa, UniProt Q0JBA9 1-250)
# Test: protein-binding microarray (RPBM); PBS, 2% BSA, 51.3 ng/ul salmon testes DNA, 50 uM zinc acetate, 200 nM TF, 25 C, 1 h; high values mean tight binding
# Conditions: protein: recombinant; tags: N-terminal polyhistidine and DsRed monomer fusion (pET32a); label: CyDye5-dUTP incorporated in the synthesized complementary strand; 3' TTTTT single-stranded linker to array surface; dsDNA, one strand shown
# Method in brief: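 Transcription factors were made in E. coli BL21-CodonPlus as N-terminal fusions to a polyhistidine tag and DsRed, then purified on Ni–NTA. After primer extension with Cy5-dUTP and blocking with 2% BSA, a custom Agilent array was exposed for 1 h at 25 °C to 200 nM protein in PBS, 2% BSA, salmon testes DNA and 50 µM zinc acetate. Washed arrays were scanned on an Axon 4000B, and the binding signal is per-feature fluorescence intensity in arbitrary units.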
row,Sequence,binding signal
1,TATCACATGTTTAACCATTCGTCTTATTCAAAAAATTTATCGGAGTCACCTAGTGCAG,8170 fluorescence intensity (a.u.)
2,TGGTGAGGAGGAGGAGGAGGAGGAGCGGGGAGAGTGTCGCCGGAGTCACCTAGTGCAG,8870 fluorescence intensity (a.u.)
3,GTCTTTTGTTCATTAGCTTCTTCTCTTTTCTGCACATTTTCGGAGTCACCTAGTGCAG,10900 fluorescence intensity (a.u.)
4,GTCGATTAGCAAACATGCATTTCATCTGCAGATTCTGACACGGAGTCACCTAGTGCAG,8250 fluorescence intensity (a.u.)
5,CGTGTTCAACGTTTGACCGTCTGTCTTATTTAAAAATTTTCGGAGTCACCTAGTGCAG,8750 fluorescence intensity (a.u.)
6,ATCTGTTATGTTTGCCCTGTCATTGGTTCTGCTAATCAATCGGAGTCACCTAGTGCAG,9160 fluorescence intensity (a.u.)
7,CGTTTTTCGAGTGCACATATTTGTTTTACTTGTTTTGAAACGGAGTCACCTAGTGCAG,10800 fluorescence intensity (a.u.)
8,GCATGGGTAACTACTATTCCTCCTCTCGCTAATATATTTCCGGAGTCACCTAGTGCAG,10200 fluorescence intensity (a.u.)
9,AGTGGTTAGTTGGGTACATGGAAAAATATAATATATACCACGGAGTCACCTAGTGCAG,8220 fluorescence intensity (a.u.)
10,GGTACGTCATCCGTGTTTGAGTGGGTTTTAAAGTTCATTCCGGAGTCACCTAGTGCAG,12600 fluorescence intensity (a.u.)
11,GTTTGTATAGCTCCTATTGTACATTTTTGTTTGCATAGCTCGGAGTCACCTAGTGCAG,11100 fluorescence intensity (a.u.)
12,AATTTTTCACCCATCACATCAAATGTTTGGATACATACATCGGAGTCACCTAGTGCAG,9330 fluorescence intensity (a.u.)
13,CATCGTAATTTGTTTTTCAGCATTTATTTTTAAATTGTTACGGAGTCACCTAGTGCAG,8220 fluorescence intensity (a.u.)
14,GGGCCCAGCCCACAGCGCCGCATTTGTTTCGACCGCTTCACGGAGTCACCTAGTGCAG,9960 fluorescence intensity (a.u.)
15,TGCTCTGATGGGGTTATGTTCATTTAAGGCTGGATTGGTACGGAGTCACCTAGTGCAG,8600 fluorescence intensity (a.u.)
16,GCCTGTCTCTGTGGAGCTGCGGTGCCAATATTACTGCTTCCGGAGTCACCTAGTGCAG,8650 fluorescence intensity (a.u.)
17,ATTTTTTTTTCTCCTTTTTTCCACACCAGTTAGTTTTAGCCGGAGTCACCTAGTGCAG,8780 fluorescence intensity (a.u.)
18,TTGTGACTTGACTTTGCCAATCTTAGTCTATTTTCTCGAGCGGAGTCACCTAGTGCAG,8840 fluorescence intensity (a.u.)
19,AATGTTTACTGTACCACCACACTGTCAAATCATGGCACAACGGAGTCACCTAGTGCAG,8220 fluorescence intensity (a.u.)
20,GCGGCTATCGTGTTGGTCTCTTACTTAGCTATATTTAGATCGGAGTCACCTAGTGCAG,8590 fluorescence intensity (a.u.)
21,TTGATTTTGCAACACGATTATGTTGTCTTCTTTTCCCTATCGGAGTCACCTAGTGCAG,8800 fluorescence intensity (a.u.)

row,Sequence,binding signal
1,TCGTCCCCGCCGCCACCACATGTGCCGCTCCGTCGTGCTCCGGAGTCACCTAGTGCAG,8800 fluorescence intensity (a.u.)
2,TATAGGAGGGAGGGGTCTAATTTAAAATTCTAATCATCATCGGAGTCACCTAGTGCAG,8960 fluorescence intensity (a.u.)
3,AGGTGAGAGTGAGTTGGTTTATTTCGTTTTTTCGTGCACGCGGAGTCACCTAGTGCAG,8400 fluorescence intensity (a.u.)
4,TGTGGTGGGTTCTAGCTCTAGTTGCAGCAATGTTTCCGAACGGAGTCACCTAGTGCAG,14300 fluorescence intensity (a.u.)
5,TTTGCTCTTGACACAATCCCCAACCTAGTTTGTTGGATTTCGGAGTCACCTAGTGCAG,8510 fluorescence intensity (a.u.)
6,GAATTTCTCTTGTAGCCATGTTTTTTTTTCTAATTAAGATCGGAGTCACCTAGTGCAG,8840 fluorescence intensity (a.u.)
7,CCCAGACACGCGCGTCCCATCGCCCCTATCCATGCCCAATCGGAGTCACCTAGTGCAG,8420 fluorescence intensity (a.u.)
8,AGAGCGGTAGTGATTGTGGTTGGGGCGGCAGTTAGTGGTTCGGAGTCACCTAGTGCAG,13400 fluorescence intensity (a.u.)
9,TCCTCGGATCCACGCCATCTCTCTTGACCAGCCGAGCGCACGGAGTCACCTAGTGCAG,12900 fluorescence intensity (a.u.)
10,TGCGGTGTGTTTTTTTTTTCAAAATGTACTCCCTCCGTTTCGGAGTCACCTAGTGCAG,9030 fluorescence intensity (a.u.)
11,TCTAGGCCTTATCAGTTTTGTATAGTTTTATCCCTAGGGGCGGAGTCACCTAGTGCAG,9060 fluorescence intensity (a.u.)
12,GATCTTACCTGATTTAACTATTTTTACTCTATATGCTTCGCGGAGTCACCTAGTGCAG,8890 fluorescence intensity (a.u.)
13,CTTTGTCTACATTCCCATGGCTGCAGAGCTACGAGGAGGGCGGAGTCACCTAGTGCAG,9070 fluorescence intensity (a.u.)
14,TAAGAGCAAAGTCCGTATTTAATTGTTTGGTTGGTAGAATCGGAGTCACCTAGTGCAG,8040 fluorescence intensity (a.u.)
15,AAACTACCCTTGTATGCCATGTGTTCTTTATTCTACTGGTCGGAGTCACCTAGTGCAG,10700 fluorescence intensity (a.u.)
16,ACCAGTATTTAATTCCTTCTATTTTTGGTACTTCTGCAGGCGGAGTCACCTAGTGCAG,8130 fluorescence intensity (a.u.)
17,CATTGGCAGGACATCACATGTTAATATTGTTAGCTTATTTCGGAGTCACCTAGTGCAG,8060 fluorescence intensity (a.u.)
18,CTCCTCTTATCTTGGGCAGTAGTGGCGCTACCTCTTTCTTCGGAGTCACCTAGTGCAG,8570 fluorescence intensity (a.u.)
19,CGACGCGCTGGCATGTATTTTCAACGTCTTCTTCTGTCGTCGGAGTCACCTAGTGCAG,9880 fluorescence intensity (a.u.)
20,CCCTACGTTACATTTTTAAGTCACTGATGTGTAGATCCATCGGAGTCACCTAGTGCAG,10000 fluorescence intensity (a.u.)
21,ATAGCATTGGTTTCTCGTTAGGTTCAGATATAGGAATAGACGGAGTCACCTAGTGCAG,9440 fluorescence intensity (a.u.)

# Some of the entries above in a different format:
row	Sequence	binding signal
10	GGTACGTCATCCGTGTTTGAGTGGGTTTTAAAGTTCATTCCGGAGTCACCTAGTGCAG	12600 fluorescence intensity (a.u.)
19	AATGTTTACTGTACCACCACACTGTCAAATCATGGCACAACGGAGTCACCTAGTGCAG	8220 fluorescence intensity (a.u.)
